This passage reports T/C and survivor count results from PubChem BioAssay AID330 (DTP/NCI, 2004).

This assay relates to P388 leukemia ip, CD2F1 mice, survival T/C. Description: NCI In Vivo Anticancer Drug Screen. Data for tumor model P388 Leukemia (intraperitoneal) in CD2F1 (CDF1) mice. Particulars: T/C endpoint: median survival time, higher T/C = longer survival.
[1] abbreviates: dose: 0.5 mg/kg/injection, schedule: Q01DX009 (ip), vehicle: saline with Tween-80.
Where [2] appears, read: dose: 200.0 mg/kg/injection, schedule: Q01DX009 (ip), vehicle: saline.
Where [3] appears, read: dose: 400.0 mg/kg/injection, schedule: Q01DX009 (ip), vehicle: saline.
Setting [4] is: dose: 200.0 mg/kg/injection, schedule: Q01DX009 (ip), vehicle: saline with Tween-80.
Where [5] appears, read: dose: 25.0 mg/kg/injection, schedule: Q01DX009 (ip), vehicle: saline with Tween-80.

The list is a part of this screen's results and no random one: it gathers tests that were run many times, whatever their T/C, doses with no T/C, and many T/C values between a quarter and a half above the control. Other doses and runs of a compound stand elsewhere. T/C is the treated group as % of the vehicle group. Some doses have a count of surviving animals in place of a T/C: the source files T/C as zero there, which appears to mark a toxic dose or a test without result, not a measured value. Some survivor counts are full or nearly so, which does not show that the dose was tolerated: survival well below the control is almost never listed, so the zero probably covers shortened survival too. Counts of survivors are from the toxicity check (mostly the fifth day) where no day follows; animals may have died later. Schedule codes are those of the source, read here as Q, the interval in days (D) or hours (H), X, the number of doses. Some entries hold several experiments; their values stand side by side, smallest first. Where survival is the endpoint, the PubChem record calls one and a half times the control and up active, and a quarter to a half above the control has no call in these data; cut-offs in other NCI protocols can differ. Some T/C values carry the count of animals alive at the toxicity check (mostly the fifth day); without a count, all were alive then.

For the compound `COc1cc2c(c(OC)c1OC)-c1ccc(OC)c(=O)cc1[C@@H](NC(=O)CCl)CC2`, the T/C is 137 % of control (dose: 0.03 mg/kg/injection, schedule: Q01DX009 (ip), vehicle: saline with Tween-80); 130, 141, 146 % of control (dose: 0.06 mg/kg/injection, schedule: Q01DX009 (ip), vehicle: saline with Tween-80); 126 % of control (dose: 0.12 mg/kg/injection, schedule: Q01DX009 (ip), vehicle: Klucel (hydroxypropylcellulose) (HPC)); 147 % of control (dose: 0.13 mg/kg/injection, schedule: Q01DX009 (ip), vehicle: saline with Tween-80); 132 % of control (dose: 0.5 mg/kg/injection, schedule: Q01DX009 (ip), vehicle: Klucel (hydroxypropylcellulose) (HPC)); 144 % of control under setting [1]. Besides, the survivor count reads like this: (dose: 0.25 mg/kg/injection, schedule: Q01DX009 (ip), vehicle: saline with Tween-80) 6 of 6; under setting [1], 6 of 6; (dose: 1.0 mg/kg/injection, schedule: Q01DX009 (ip), vehicle: Klucel (hydroxypropylcellulose) (HPC)) 5 of 6; (dose: 1.0 mg/kg/injection, schedule: Q01DX009 (ip), vehicle: saline with Tween-80) 0 of 6 and 5 of 6; (dose: 1.25 mg/kg/injection, schedule: Q01DX009 (ip), vehicle: saline) 3 of 6; (dose: 2.5 mg/kg/injection, schedule: Q01DX009 (ip), vehicle: saline) 1 of 6. For the setting “dose: 5.0 mg/kg/injection, schedule: Q01DX009 (ip), vehicle: saline”, the survivor count is recorded as 0 of 6.
For `CN1c2c(nc(N)[nH]c2=O)NCC1CCNc1ccc(C(=O)NC(CCC(=O)O)C(=O)O)cc1` (centres undefined), the T/C runs as follows: (dose: 200.0 mg/kg/injection, schedule: Q01DX009 (ip), vehicle: Klucel (hydroxypropylcellulose) (HPC)) 136 % of control; under setting [2], 127 % of control [5 of 6 alive]; (dose: 400.0 mg/kg/injection, schedule: Q01DX009 (ip), vehicle: Klucel (hydroxypropylcellulose) (HPC)) 149 % of control; under setting [3], 127 % of control; (dose: 1200.0 mg/kg/injection, schedule: Q01DX005 (ip), vehicle: saline) 133 % of control [5 of 6 alive]; (dose: 1200.0 mg/kg/injection, schedule: Q01DX005 (iv), vehicle: saline) 137 % of control. Besides, the T/C is 129 % of control (dose: 1200.0 mg/kg/injection, schedule: Q01DX009 (ip), vehicle: saline) and 146 % of control (dose: 1200.0 mg/kg/injection, schedule: Q01DX009 (ip), vehicle: sodium bicarbonate). Further, the survivor count (dose: 1200.0 mg/kg/injection, schedule: Q01DX009 (ip), vehicle: Klucel (hydroxypropylcellulose) (HPC)) is on record as 6 of 6.
Regarding `O=C(Nn1c(=S)[nH]c2ccccc2c1=O)c1ccc([N+](=O)[O-])cc1`, where the note is “dose: 240.0 mg/kg/injection, schedule: Q01DX005 (ip), vehicle: Klucel + Tween-80”, the survivor count is recorded as 5 of 6.
In the case of `Cc1ccc2c(c1)C(O)C(N)CCO2` (centres undefined), the survivor count (dose: 400.0 mg/kg/injection, schedule: Q04DX003 (ip), vehicle: saline) was 0 of 6.
In the case of `CC1(C)COC(c2ccc(Br)cc2)=N1`, the survivor count (dose: 400.0 mg/kg/injection, schedule: Q01DX009 (ip), vehicle: other) is on record as 2 of 6.
In the case of `CCN(CC)Cc1c(C)[nH]c2ccc(NC(C)=O)cc2c1=O`, under setting [4], the survivor count is recorded as 3 of 6.
Turning to `CN1CCC(/C=C/c2cccc3ccccc23)CN1` (centres undefined) (tested in a mixture with another compound), the survivor count under setting [2] is 5 of 6.
As for `COC1=CC(=O)c2ncccc2C1=O`, the survivor count reads like this: (dose: 50.0 mg/kg/injection, schedule: Q01DX009 (ip), vehicle: DMSO) 1 of 6; (dose: 100.0 mg/kg/injection, schedule: Q01DX009 (ip), vehicle: DMSO) 0 of 6.
On to `O=C(CCS(=O)(=O)CCC(=O)c1ccc2ccccc2c1)c1ccc2ccccc2c1`, for which the survivor count (dose: 200.0 mg/kg/injection, schedule: Q04DX003 (ip), vehicle: saline) is 6 of 6.
`Cc1ccc(C)c(NC(=O)Nc2nccs2)c1`: where the note is “dose: 100.0 mg/kg/injection, schedule: Q01DX009 (ip), vehicle: Klucel (hydroxypropylcellulose) (HPC)”, the survivor count is 0 of 6.
As to `Cc1c(N=Nc2ccc([N+](=O)[O-])cc2)nc2scc(-c3ccccc3)n12`, the T/C is, setting by setting: (dose: 50.0 mg/kg/injection, schedule: Q04DX002 (ip), vehicle: Klucel (hydroxypropylcellulose) (HPC)) 133 % of control; (dose: 100.0 mg/kg/injection, schedule: Q04DX002 (ip), vehicle: Klucel (hydroxypropylcellulose) (HPC)) 136 % of control [4 of 6 alive]. The survivor count was 6 of 6 (dose: 200.0 mg/kg/injection, schedule: Q04DX002 (ip), vehicle: Klucel (hydroxypropylcellulose) (HPC)) and 6 of 6 (dose: 400.0 mg/kg/injection, schedule: Q04DX002 (ip), vehicle: Klucel (hydroxypropylcellulose) (HPC)).
`COc1ccc(/C=N/c2oc(-c3ccccc3)c(-c3ccccc3)c2-c2ccc(OC)cc2)cc1`: the survivor count is 6 of 6 (dose: 50.0 mg/kg/injection, schedule: Q01DX005 (ip), vehicle: saline with Tween-80); 6 of 6 (dose: 100.0 mg/kg/injection, schedule: Q01DX005 (ip), vehicle: saline with Tween-80); 6 of 6 (dose: 200.0 mg/kg/injection, schedule: Q01DX005 (ip), vehicle: saline with Tween-80).
On to `O=C1c2ccccc2C=c2c1nc1c(O)ccc3cccc2c31`, for which the survivor count is, setting by setting: (dose: 100.0 mg/kg/injection, schedule: Q01DX005 (ip), vehicle: Klucel (hydroxypropylcellulose) (HPC)) 4 of 6; (dose: 200.0 mg/kg/injection, schedule: Q01DX005 (ip), vehicle: Klucel (hydroxypropylcellulose) (HPC)) 0 of 6.
For `Cc1nn(-c2ccccc2)c2oc3ccc(Cl)cc3c(=O)c12`, the survivor count (dose: 240.0 mg/kg/injection, schedule: Q01DX005 (ip), vehicle: saline) was 5 of 6.
In the case of `CN1/C(=C/C=C/C(I)=C/C=C/C2=[N+](C)c3ccccc3C2(C)C)C(C)(C)c2ccccc21`, the T/C was 125 % of control (dose: 12.5 mg/kg/injection, schedule: Q01DX009 (ip), vehicle: saline with Tween-80) and 132 % of control under setting [5]. In addition, the survivor count (dose: 50.0 mg/kg/injection, schedule: Q01DX009 (ip), vehicle: saline with Tween-80) is listed as 2 of 6.
Take `O=C(Nc1ccc(Cl)cc1)Nc1nnc2nc(C3(c4nc5nnc(NC(=O)Nc6ccc(Cl)cc6)n5[nH]c4=O)CCCC3=O)c(=O)[nH]n12`: under “dose: 120.0 mg/kg/injection, schedule: Q01DX005 (ip), vehicle: saline with Tween-80”, the survivor count is reported as 6 of 6.
As to `O=Cc1ccc(O)c(O)c1`, the T/C is 129 % of control (dose: 100.0 mg/kg/injection, schedule: Q01DX009 (ip), vehicle: saline); 126 and 131 % of control under setting [2]. For the same compound, the survivor count is given as 2 of 6 under setting [3] and 0 of 6 (dose: 600.0 mg/kg/injection, schedule: Q01DX009 (ip), vehicle: saline).
On to `CNc1ncnc2ccccc12`, for which the survivor count under setting [4] is given as 0 of 6.
Regarding `COc1ccc2c(c1)CCC1=C2C=C[P+]1(C)C`, the survivor count (dose: 100.0 mg/kg/injection, schedule: Q01DX009 (ip), vehicle: saline with Tween-80) was 0 of 6 and the survivor count under setting [4] was 0 of 6.
Regarding `Nc1cc2c3c(cccc3c1)C(=O)N(CCN1CCCC1)C2=O`, the T/C is, setting by setting: (dose: 6.5 mg/kg/injection, schedule: Q01DX009 (ip), vehicle: saline with Tween-80) 137 % of control [5 of 6 alive]; (dose: 12.1 mg/kg/injection, schedule: Q01DX009 (ip), vehicle: saline with Tween-80) 135 % of control; under setting [5], 142 % of control.
`COc1cc(C2c3cc4c(cc3C(=O)C(C)C2C)OCO4)ccc1O` (centres undefined): the survivor count (dose: 300.0 mg/kg/injection, schedule: Q01DX005 (ip), vehicle: Klucel (hydroxypropylcellulose) (HPC)) was 6 of 6.
For `CC[As](CC)SC1CC(OC(=O)c2ccccc2)C(OC(=O)c2ccccc2)C(COC(=O)c2ccccc2)O1` (centres undefined), the survivor count under setting [4] is on record as 0 of 6.
With `C=C1C(=O)O[C@@H]2C3=C(C)C(=O)C=C[C@]3(C)CC[C@@H]12`, the survivor count reads like this: (dose: 200.0 mg/kg/injection, schedule: Q04DX002 (ip), vehicle: saline with Tween-80) 4 of 6; (dose: 400.0 mg/kg/injection, schedule: Q04DX002 (ip), vehicle: saline with Tween-80) 0 of 6.
